# In the supplement of paper PMC12823440, “Inhibitors supercharge kinase turnover through native proteolytic circuits” (Nature, 2025):
# Sequences of proteins named here, by UniProt entry; tags and fusion partners are left off. A change or cut given only in a name is not applied to a line headed by its entry.
# UniProt P00519, whole entry: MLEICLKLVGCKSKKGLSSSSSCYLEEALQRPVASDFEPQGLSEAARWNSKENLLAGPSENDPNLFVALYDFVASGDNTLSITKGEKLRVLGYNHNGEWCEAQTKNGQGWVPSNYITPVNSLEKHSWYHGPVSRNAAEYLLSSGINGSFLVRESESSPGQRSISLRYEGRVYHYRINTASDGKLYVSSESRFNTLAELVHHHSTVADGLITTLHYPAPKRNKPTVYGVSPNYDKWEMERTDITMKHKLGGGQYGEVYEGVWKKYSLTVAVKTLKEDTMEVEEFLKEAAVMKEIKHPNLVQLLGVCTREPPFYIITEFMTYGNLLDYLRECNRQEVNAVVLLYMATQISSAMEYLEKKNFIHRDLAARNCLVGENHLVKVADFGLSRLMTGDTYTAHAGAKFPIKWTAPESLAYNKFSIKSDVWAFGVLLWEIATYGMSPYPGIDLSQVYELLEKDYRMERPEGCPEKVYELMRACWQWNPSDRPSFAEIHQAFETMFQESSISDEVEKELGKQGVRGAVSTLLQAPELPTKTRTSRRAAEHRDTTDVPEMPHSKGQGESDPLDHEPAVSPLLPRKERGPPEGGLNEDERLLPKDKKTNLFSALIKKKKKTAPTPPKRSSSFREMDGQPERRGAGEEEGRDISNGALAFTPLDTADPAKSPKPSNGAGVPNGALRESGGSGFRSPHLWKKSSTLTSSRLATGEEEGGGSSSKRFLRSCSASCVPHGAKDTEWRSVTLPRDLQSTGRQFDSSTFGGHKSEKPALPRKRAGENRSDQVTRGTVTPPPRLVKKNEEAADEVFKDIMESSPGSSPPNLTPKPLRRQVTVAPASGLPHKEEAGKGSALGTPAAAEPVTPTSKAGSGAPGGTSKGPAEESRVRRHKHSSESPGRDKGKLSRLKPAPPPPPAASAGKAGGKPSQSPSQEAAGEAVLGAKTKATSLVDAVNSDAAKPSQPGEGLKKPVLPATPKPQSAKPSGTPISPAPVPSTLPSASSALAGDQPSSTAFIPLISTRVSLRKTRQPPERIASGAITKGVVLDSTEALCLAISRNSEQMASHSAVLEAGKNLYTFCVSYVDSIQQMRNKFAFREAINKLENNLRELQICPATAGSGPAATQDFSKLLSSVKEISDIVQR
# UniProt P31749: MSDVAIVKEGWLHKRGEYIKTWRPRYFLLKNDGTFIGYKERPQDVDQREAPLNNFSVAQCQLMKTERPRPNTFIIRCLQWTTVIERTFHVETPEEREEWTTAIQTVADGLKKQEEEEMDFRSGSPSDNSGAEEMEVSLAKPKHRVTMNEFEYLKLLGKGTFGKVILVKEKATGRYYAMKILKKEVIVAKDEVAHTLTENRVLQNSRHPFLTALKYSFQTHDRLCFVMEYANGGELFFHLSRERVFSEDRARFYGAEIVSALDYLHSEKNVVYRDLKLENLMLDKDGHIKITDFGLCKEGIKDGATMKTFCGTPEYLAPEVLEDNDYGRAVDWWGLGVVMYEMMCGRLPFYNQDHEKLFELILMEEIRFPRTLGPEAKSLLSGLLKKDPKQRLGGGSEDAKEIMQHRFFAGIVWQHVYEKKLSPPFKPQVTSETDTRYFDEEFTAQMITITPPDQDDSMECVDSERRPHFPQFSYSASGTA
# UniProt Q9UM73: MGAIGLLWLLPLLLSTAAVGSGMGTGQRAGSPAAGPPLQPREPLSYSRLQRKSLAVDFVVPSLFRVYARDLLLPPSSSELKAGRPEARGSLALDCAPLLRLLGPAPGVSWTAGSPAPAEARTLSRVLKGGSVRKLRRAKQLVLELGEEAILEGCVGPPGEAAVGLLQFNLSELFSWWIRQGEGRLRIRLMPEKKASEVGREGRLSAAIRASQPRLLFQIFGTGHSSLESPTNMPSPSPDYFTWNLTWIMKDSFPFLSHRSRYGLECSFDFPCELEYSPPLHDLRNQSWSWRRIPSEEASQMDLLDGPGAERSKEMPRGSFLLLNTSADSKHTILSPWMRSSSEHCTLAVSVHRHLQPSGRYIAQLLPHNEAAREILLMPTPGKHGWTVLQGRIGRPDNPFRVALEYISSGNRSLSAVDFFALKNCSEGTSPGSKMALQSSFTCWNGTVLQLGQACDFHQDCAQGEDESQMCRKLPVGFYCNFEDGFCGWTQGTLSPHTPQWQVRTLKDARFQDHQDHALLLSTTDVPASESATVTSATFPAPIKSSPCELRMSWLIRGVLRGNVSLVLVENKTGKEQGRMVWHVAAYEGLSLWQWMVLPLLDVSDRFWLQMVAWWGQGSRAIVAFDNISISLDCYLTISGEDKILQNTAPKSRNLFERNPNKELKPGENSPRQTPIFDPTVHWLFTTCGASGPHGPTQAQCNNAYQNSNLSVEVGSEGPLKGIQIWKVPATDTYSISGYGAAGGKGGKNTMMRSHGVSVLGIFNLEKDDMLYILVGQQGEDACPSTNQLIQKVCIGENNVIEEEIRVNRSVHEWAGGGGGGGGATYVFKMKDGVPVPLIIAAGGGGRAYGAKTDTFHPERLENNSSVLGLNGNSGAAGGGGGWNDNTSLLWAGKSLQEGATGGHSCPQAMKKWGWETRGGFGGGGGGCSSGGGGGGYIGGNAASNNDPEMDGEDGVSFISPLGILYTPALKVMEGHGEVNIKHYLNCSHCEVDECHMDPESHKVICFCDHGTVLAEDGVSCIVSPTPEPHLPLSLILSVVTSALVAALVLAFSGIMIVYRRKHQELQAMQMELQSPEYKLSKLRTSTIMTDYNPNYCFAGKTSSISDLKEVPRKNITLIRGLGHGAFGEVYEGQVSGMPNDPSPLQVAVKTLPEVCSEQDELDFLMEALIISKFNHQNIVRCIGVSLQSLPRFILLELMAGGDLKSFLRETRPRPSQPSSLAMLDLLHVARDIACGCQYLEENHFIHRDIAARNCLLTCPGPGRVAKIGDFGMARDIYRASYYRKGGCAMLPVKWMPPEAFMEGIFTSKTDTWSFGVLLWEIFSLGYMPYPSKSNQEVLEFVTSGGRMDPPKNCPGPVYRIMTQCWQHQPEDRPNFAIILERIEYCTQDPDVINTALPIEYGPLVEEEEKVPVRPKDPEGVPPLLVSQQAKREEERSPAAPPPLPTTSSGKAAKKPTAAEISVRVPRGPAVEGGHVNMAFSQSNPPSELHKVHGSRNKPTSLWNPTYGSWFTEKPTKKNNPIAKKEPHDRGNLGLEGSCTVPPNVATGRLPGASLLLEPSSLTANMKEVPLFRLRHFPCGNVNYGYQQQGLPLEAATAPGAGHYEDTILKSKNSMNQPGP
# UniProt O14965: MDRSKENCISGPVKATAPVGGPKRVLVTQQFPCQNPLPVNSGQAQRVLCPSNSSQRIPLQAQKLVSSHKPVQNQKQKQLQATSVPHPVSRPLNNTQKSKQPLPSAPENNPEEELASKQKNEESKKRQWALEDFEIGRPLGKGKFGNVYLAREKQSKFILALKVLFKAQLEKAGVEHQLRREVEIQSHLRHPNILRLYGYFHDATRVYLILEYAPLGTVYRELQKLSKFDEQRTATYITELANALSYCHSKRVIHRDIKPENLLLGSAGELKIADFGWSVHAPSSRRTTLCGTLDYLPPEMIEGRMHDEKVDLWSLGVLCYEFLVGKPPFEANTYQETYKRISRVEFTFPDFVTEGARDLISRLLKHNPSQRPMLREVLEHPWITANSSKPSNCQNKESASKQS
# UniProt P51451: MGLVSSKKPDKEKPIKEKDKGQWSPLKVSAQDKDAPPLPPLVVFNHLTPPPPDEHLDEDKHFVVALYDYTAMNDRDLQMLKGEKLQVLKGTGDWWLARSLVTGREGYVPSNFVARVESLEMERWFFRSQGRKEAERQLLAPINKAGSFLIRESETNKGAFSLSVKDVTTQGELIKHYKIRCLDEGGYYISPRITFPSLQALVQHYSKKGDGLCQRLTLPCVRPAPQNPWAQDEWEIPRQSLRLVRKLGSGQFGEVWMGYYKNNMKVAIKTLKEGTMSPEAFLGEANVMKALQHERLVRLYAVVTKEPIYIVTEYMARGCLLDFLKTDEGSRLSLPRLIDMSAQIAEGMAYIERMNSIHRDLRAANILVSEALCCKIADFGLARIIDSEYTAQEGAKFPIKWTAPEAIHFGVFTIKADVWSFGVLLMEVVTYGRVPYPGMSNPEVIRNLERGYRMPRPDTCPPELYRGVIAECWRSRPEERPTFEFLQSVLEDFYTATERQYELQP
# UniProt P15056, whole entry, looked up: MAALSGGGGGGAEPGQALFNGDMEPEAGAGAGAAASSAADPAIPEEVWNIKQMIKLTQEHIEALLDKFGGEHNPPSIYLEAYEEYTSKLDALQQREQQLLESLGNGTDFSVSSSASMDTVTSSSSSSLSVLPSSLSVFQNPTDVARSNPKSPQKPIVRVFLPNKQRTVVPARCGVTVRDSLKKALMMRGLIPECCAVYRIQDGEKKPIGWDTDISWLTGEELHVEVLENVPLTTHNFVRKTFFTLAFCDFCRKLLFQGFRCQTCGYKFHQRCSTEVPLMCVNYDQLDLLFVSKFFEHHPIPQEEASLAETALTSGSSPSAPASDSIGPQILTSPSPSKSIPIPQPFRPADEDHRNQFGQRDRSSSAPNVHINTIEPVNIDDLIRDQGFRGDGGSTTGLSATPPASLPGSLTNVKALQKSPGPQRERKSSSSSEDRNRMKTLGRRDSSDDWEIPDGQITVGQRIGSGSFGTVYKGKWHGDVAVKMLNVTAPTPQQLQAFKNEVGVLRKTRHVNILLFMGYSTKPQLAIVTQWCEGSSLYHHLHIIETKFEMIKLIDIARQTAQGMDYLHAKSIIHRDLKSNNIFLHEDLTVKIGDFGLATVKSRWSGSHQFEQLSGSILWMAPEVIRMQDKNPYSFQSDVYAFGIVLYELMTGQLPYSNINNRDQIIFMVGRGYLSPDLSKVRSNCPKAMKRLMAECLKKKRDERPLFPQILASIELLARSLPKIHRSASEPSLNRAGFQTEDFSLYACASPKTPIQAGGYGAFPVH
# UniProt Q9UQM7, whole entry: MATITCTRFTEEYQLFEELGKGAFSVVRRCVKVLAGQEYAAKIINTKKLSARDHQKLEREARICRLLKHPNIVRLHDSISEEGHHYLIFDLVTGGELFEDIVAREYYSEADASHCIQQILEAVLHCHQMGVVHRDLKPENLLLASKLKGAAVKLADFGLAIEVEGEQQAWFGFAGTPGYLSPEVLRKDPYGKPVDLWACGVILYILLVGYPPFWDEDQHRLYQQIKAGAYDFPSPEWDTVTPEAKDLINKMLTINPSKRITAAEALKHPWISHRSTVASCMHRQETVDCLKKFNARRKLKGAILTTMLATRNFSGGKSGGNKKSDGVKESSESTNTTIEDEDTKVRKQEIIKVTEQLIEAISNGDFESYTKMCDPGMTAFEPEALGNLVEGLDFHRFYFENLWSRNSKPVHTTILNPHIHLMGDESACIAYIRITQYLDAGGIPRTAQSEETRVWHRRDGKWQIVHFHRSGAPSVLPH
# UniProt Q15131: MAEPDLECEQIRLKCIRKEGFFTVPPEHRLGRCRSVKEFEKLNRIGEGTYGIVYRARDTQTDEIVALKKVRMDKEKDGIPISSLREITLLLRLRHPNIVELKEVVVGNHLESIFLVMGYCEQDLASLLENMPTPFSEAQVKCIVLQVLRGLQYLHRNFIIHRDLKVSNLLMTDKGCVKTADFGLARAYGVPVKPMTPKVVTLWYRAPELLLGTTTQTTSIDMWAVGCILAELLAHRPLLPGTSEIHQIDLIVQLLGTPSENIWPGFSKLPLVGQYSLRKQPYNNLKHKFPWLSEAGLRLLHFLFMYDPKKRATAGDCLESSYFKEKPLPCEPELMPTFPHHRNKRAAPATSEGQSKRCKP
# UniProt P11802: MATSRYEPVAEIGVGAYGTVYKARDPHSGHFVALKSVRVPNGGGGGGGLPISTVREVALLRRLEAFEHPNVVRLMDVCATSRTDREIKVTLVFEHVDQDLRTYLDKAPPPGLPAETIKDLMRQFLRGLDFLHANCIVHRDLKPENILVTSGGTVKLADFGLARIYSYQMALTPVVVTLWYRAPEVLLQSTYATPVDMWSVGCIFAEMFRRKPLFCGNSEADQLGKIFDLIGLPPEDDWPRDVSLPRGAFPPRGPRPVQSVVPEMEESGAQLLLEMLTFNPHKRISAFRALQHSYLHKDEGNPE
# UniProt Q00534, whole entry: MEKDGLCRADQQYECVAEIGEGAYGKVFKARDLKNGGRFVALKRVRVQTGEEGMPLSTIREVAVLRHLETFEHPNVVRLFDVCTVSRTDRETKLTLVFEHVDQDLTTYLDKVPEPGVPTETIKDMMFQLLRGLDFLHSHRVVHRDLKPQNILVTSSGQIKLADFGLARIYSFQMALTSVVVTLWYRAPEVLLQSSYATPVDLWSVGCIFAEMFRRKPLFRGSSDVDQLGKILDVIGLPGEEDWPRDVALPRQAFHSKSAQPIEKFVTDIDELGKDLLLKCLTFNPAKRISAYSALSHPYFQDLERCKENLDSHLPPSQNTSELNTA
# Counter-ions that a name gives are not always drawn. This is one part of the list. Hit calls seldom repeat between salt and free forms of one compound.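 Kinases, fused to nanoluciferase, were expressed in K562 cells; luminescence was measured every 4 h from 2 to 18 h as percent of control (DMSO = 100%, positive control = 0%). A time point is decreased if signal falls significantly (2 sigma). Hits were called by the authors by a rule that is not shown; the count of time points alone does not decide it.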
# Key:
# Experiment in all cases: kinase-Nluc reporter destabilization hit call (1 = scored as downregulated) (binary); higher = compound decreases kinase abundance
# Conditions in all cases: K562; 2-18 h
# [1] = target: ABL1 (UniProt P00519)
# [2] = target: AKT1 (UniProt P31749)
# [3] = target: ALK (UniProt Q9UM73)
# [4] = target: ARAF (UniProt P10398)
# [5] = target: AURKA (UniProt O14965)
# [6] = target: AURKB (UniProt Q96GD4)
# [7] = target: AURKC (UniProt Q9UQB9)
# [8] = target: BLK (UniProt P51451)
# [9] = target: BMX (UniProt P51813)
# [10] = target: BRAF (UniProt P15056)
# [11] = test system: BRAF_V600E
# [12] = target: BTK (UniProt Q06187)
# [13] = target: CAMK2A (UniProt Q9UQM7)
# [14] = target: CAMK2G (UniProt Q13555)
# [15] = target: CDK10 (UniProt Q15131)
# [16] = target: CDK2 (UniProt P24941)
# [17] = target: CDK3 (UniProt Q00526)
# [18] = target: CDK4 (UniProt P11802)
# [19] = target: CDK5 (UniProt Q00535)
# [20] = target: CDK6 (UniProt Q00534)
SMILES,kinase-Nluc reporter destabilization hit call [1],kinase-Nluc reporter destabilization hit call [2],kinase-Nluc reporter destabilization hit call [3],kinase-Nluc reporter destabilization hit call [4],kinase-Nluc reporter destabilization hit call [5],kinase-Nluc reporter destabilization hit call [6],kinase-Nluc reporter destabilization hit call [7],kinase-Nluc reporter destabilization hit call [8],kinase-Nluc reporter destabilization hit call [9],kinase-Nluc reporter destabilization hit call [10],kinase-Nluc reporter destabilization hit call [11],kinase-Nluc reporter destabilization hit call [12],kinase-Nluc reporter destabilization hit call [13],kinase-Nluc reporter destabilization hit call [14],kinase-Nluc reporter destabilization hit call [15],kinase-Nluc reporter destabilization hit call [16],kinase-Nluc reporter destabilization hit call [17],kinase-Nluc reporter destabilization hit call [18],kinase-Nluc reporter destabilization hit call [19],kinase-Nluc reporter destabilization hit call [20]
CC1C(=O)OC2C(O)C34C5OC(=O)C3(OC3OC(=O)C(O)C34C(C(C)(C)C)C5O)C12O (centres undefined) [Ginkgolide C] (10 µM),inactive: 0,inactive: 0,inactive: 0,inactive: 0,inactive: 0,inactive: 0,inactive: 0,inactive: 0,inactive: 0,inactive: 0,inactive: 0,inactive: 0,inactive: 0,inactive: 0,inactive: 0,inactive: 0,inactive: 0,inactive: 0,inactive: 0,inactive: 0
O=C1c2ccccc2C(=O)c2c1cccc2-c1cnn(C2CCNCC2)c1 [PDK4-IN-1 (hydrochloride)] (10 µM),inactive: 0,inactive: 0,inactive: 0,inactive: 0,inactive: 0,inactive: 0,inactive: 0,inactive: 0,inactive: 0,inactive: 0,inactive: 0,inactive: 0,inactive: 0,inactive: 0,inactive: 0,inactive: 0,inactive: 0,inactive: 0,inactive: 0,inactive: 0
C[C@H](CCC(=O)O)C[C@H](C)C[C@H](C)C(=O)/C=C(\O)[C@H](C)C[C@H](C)C/C=C/[C@@H](C)[C@@H](O)[C@@H](C)[C@@H](O)C[C@@H]1CC[C@@](C)([C@H]2CC[C@@](C)([C@@H](C)O)O2)O1 [Ionomycin (calcium)] (2.5 µM),inactive: 0,inactive: 0,inactive: 0,inactive: 0,active: 1,inactive: 0,inactive: 0,inactive: 0,inactive: 0,inactive: 0,inactive: 0,inactive: 0,inactive: 0,inactive: 0,inactive: 0,inactive: 0,inactive: 0,inactive: 0,inactive: 0,inactive: 0
COc1ccc2c(c1)/C(=C/c1cnc[nH]1)C(=O)N2 (2.5 µM),inactive: 0,inactive: 0,inactive: 0,inactive: 0,inactive: 0,inactive: 0,inactive: 0,inactive: 0,inactive: 0,inactive: 0,inactive: 0,inactive: 0,inactive: 0,inactive: 0,inactive: 0,,inactive: 0,inactive: 0,inactive: 0,inactive: 0
O=C(/C=C/c1ccccc1)OC[C@H]1O[C@@H](O[C@@H]2OC=C[C@H]3[C@H](O)[C@@H]4O[C@]4(CO)[C@@H]23)[C@H](O)[C@@H](O)[C@@H]1O [Picroside I] (10 µM),inactive: 0,inactive: 0,inactive: 0,inactive: 0,inactive: 0,inactive: 0,inactive: 0,inactive: 0,inactive: 0,inactive: 0,inactive: 0,inactive: 0,inactive: 0,inactive: 0,inactive: 0,inactive: 0,inactive: 0,inactive: 0,inactive: 0,inactive: 0
CCCCCCCCCCCCCCCCOC[C@H](COP(=O)([O-])OCC[N+](C)(C)C)OC(C)=O (10 µM),inactive: 0,inactive: 0,inactive: 0,inactive: 0,inactive: 0,inactive: 0,inactive: 0,inactive: 0,inactive: 0,inactive: 0,inactive: 0,inactive: 0,inactive: 0,inactive: 0,inactive: 0,inactive: 0,inactive: 0,inactive: 0,inactive: 0,inactive: 0
Cc1ccccc1-n1c(Cn2ncc3c(N)ncnc32)nc2cccc(C)c2c1=O (10 µM),inactive: 0,inactive: 0,inactive: 0,inactive: 0,inactive: 0,inactive: 0,inactive: 0,inactive: 0,inactive: 0,inactive: 0,inactive: 0,inactive: 0,inactive: 0,inactive: 0,inactive: 0,inactive: 0,inactive: 0,inactive: 0,inactive: 0,inactive: 0
CC(=O)Oc1ccc(/C=C/c2cc(OC(C)=O)cc(OC(C)=O)c2)cc1 [Triacetylresveratrol] (10 µM),inactive: 0,inactive: 0,inactive: 0,inactive: 0,inactive: 0,inactive: 0,inactive: 0,inactive: 0,inactive: 0,inactive: 0,inactive: 0,inactive: 0,inactive: 0,inactive: 0,inactive: 0,inactive: 0,inactive: 0,inactive: 0,inactive: 0,inactive: 0
O=C1C=CC[C@@H]2[C@H]3CCCN4CCC[C@@H](CN12)[C@@H]34 [Sophocarpine] (10 µM),inactive: 0,inactive: 0,inactive: 0,inactive: 0,inactive: 0,inactive: 0,inactive: 0,inactive: 0,inactive: 0,inactive: 0,inactive: 0,inactive: 0,inactive: 0,inactive: 0,inactive: 0,inactive: 0,inactive: 0,inactive: 0,inactive: 0,inactive: 0
